Source: PubChem BioAssay AID1487 (National Center for Advancing Translational Sciences (NCATS), 2009)
This is one part of the list. Further columns of the screen follow, without active or inactive calls. Compounds called inactive in the main read-out are mostly missing here. The note in brackets gives the kind of curve behind each potency; many fits are weak.

Assay: qHTS Assay for Modulators of Lamin A Splicing
Conditions: HeLa LMNA splicing GFP/RFP minigene ratio, 48 h
Outline: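 S3 HeLa cells stably expressing lamin A-EGFP splicing minigene plus DsRed2, 600 cells/well, 48 h compound exposure at 37C. Laser-scanning cytometry; analysed as GFP (500-530 nm)/RFP (575-640 nm) total intensity ratio; 0.5% DMSO vehicle.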

[1] = measured here: RFP viability control channel
[2] = measured here: GFP splicing reporter channel

Structure (SMILES) | AC50 [1] | AC50 [2]
C=CCN(c1ccccc1)S(=O)(=O)c1ccc(Cl)c(C(=O)OCC(=O)c2[nH]c(C)c(C(C)=O)c2C)c1 | 15.8 µM [rising, single point] | –
CC(/C=C1\SC(=S)N(NC(=O)c2ccccc2C)C1=O)=C\c1ccccc1 | 31.6 µM [rising, single point] | –
COc1ccc(CC(=O)Nc2nc3c(s2)CCCC3)cc1 | 31.6 µM [rising, single point] | 3.98 µM [falling, full curve, poor fit]
CS(=O)(=O)N1CCN(c2ncnc3c2cnn3-c2ccccc2)CC1 | 3.98 µM [falling, single point] | –
NC1=NC(=Nc2ccccc2)c2ccccc21 | 25.1 µM [rising, single point] | –
COc1ccc(NS(=O)(=O)c2ccc(N3CCCC3)c(NC(=S)Nc3cccc(S(=O)(=O)N(C)C)c3)c2)cc1 | 3.98 µM [rising, partial curve] | –
CC(=O)c1cccc(NC(=O)c2ccc3nc(Cc4ccccc4)oc3c2)c1 | 35.5 µM [rising, single point] | –
c1ccc(CN2CCN(c3nc(-c4ccccc4)nc(-n4ccnc4)n3)CC2)cc1 | 31.6 µM [rising, single point] | 35.5 µM [rising, single point]
COc1ccc(-c2c(C)c3ccc(O)c(CN4CCOCC4)c3oc2=O)cc1OC | – | 0.562 µM [rising, single point]
COc1cc(S(=O)(=O)N(Cc2ccc(C)cc2)Cc2ccco2)ccc1-n1cnnn1 | 22.4 µM [rising, single point] | –
Cc1cc(C)c2c(c1)c(C)cc1nnc(SCC(=O)c3ccccc3)n12 | 0.2 µM [falling, full curve, poor fit] | –
O=C(COc1ccccc1[N+](=O)[O-])N/N=C/c1cccs1 | 12.6 µM [rising, partial curve] | –
CCCCOC(=S)NC(=O)c1sc2ccccc2c1Cl | – | 35.5 µM [rising, single point]
CC(C)c1[nH]nc2c1C(C1C=CCCC1)C(C#N)=C(N)O2 (stereo not given) | 35.5 µM [falling, single point] | –
C=CCn1c(COc2ccccc2)nnc1SCc1ccc(C#N)cc1 | 25.1 µM [rising, single point] | 22.4 µM [rising, single point]
COC(=O)c1ccc(CSC(=N)N)o1 | – | 35.5 µM [falling, single point]
Cc1cc2[nH]c(=O)c(=O)[nH]c2cc1S(=O)(=O)N1CCN(c2cccc(Cl)c2)CC1 | – | 35.5 µM [rising, partial curve, poor fit]
Cc1ccc(S(=O)(=O)Oc2ccc(C)cc2/C=N/N=C2\NC(=O)C(C)S2)cc1 (stereo not given) | 31.6 µM [rising, single point] | –
CCCCN(CC)CCNC(=O)CCC(=O)Nc1ccc2nc(N3CCN(C)CC3)cc(C)c2c1 | 1.26 µM [falling, full curve, poor fit] | 2.51 µM [falling, full curve]

Rewritten as labelled records: part of the list above.
CC(=O)c1cccc(NC(=O)c2ccc3nc(Cc4ccccc4)oc3c2)c1
  AC50 [1]: 35.5 µM [rising, single point]
c1ccc(CN2CCN(c3nc(-c4ccccc4)nc(-n4ccnc4)n3)CC2)cc1
  AC50 [1]: 31.6 µM [rising, single point]; AC50 [2]: 35.5 µM [rising, single point]

Carrying on:

Structure (SMILES) | AC50 [1] | AC50 [2]
Clc1ccc(OCc2nc(-c3ccncc3)no2)c(Br)c1 | 12.6 µM [rising, partial curve, poor fit] | –
O=c1cc(O)nc(SCc2ccc(Cl)cc2)[nH]1 | – | 3.98 µM [rising, single point]
COc1cc(NS(=O)(=O)c2ccc(Br)s2)cc(OC)c1 | 22.4 µM [rising, single point] | 12.6 µM [rising, single point]
CNc1nc(N)c([N+](=O)[O-])c(Nc2cccc(Cl)c2)n1 | – | 0.00447 µM [rising, full curve, poor fit]
COc1ccc(NC(=O)CN2CCN(C3c4ccccc4-c4ccccc43)CC2)cc1 | – | 15.8 µM [rising, single point]
Cc1nc(NC(=O)COC(=O)c2cc3c(s2)CCC(C)C3)c(Cl)cc1Cl (stereo not given) | – | 35.5 µM [falling, partial curve]
CCN(CC)CCn1c2ccccc2c2cnc(N)c(C#N)c21 | 8.91 µM [rising, partial curve] | –
Cn1ccnc1SCC(=O)c1ccc([N+](=O)[O-])cc1 | 7.94 µM [falling, partial curve] | 8.91 µM [falling, partial curve, poor fit]
CN1C(=O)C2(C(C#N)=C(N)N(c3cc(Cl)cc(Cl)c3)C3=C2C(=O)CC(C)(C)C3)c2ccccc21 (stereo not given) | 5.01 µM [rising, full curve] | 7.08 µM [rising, partial curve]
C/C(=N\Nc1nc(Nc2ccccc2)nc(N2CCOCC2)n1)c1cccs1 | – | 1.41 µM [falling, full curve, poor fit]
CCn1ncc(C2=NOC(C(=O)Nc3ccc(C)cc3)C2)c1C (stereo not given) | 12.6 µM [rising, partial curve] | 12.6 µM [rising, single point]
Cc1ccc2c(CC(=O)OCC(=O)Nc3ccc(Cl)cn3)coc2c1 | 5.62 µM [rising, single point] | –
COc1ccc(N(C)S(=O)(=O)c2cccc(C(=O)Nc3ccc(-n4cnnn4)cc3)c2)cc1 | 35.5 µM [rising, single point] | 25.1 µM [rising, single point]
COc1ccc2[nH]cc(CCNc3cc(-c4cccc(C#N)c4)ncn3)c2c1 | – | 35.5 µM [falling, single point]
CCCCOC(=O)Nc1cc(OC)c(Cl)cc1OC | 0.447 µM [rising, full curve, poor fit] | –
c1ccc(C2=Nc3ccccc3OC2)cc1 | 35.5 µM [rising, single point] | –
CN(C)/C=N/c1ncn(-c2ncc(C(F)(F)F)cc2Cl)n1 | – | 0.0251 µM [rising, full curve, poor fit]
Nc1nc(CN2CCN(c3ccccc3F)CC2)nc(Nc2ccccc2)n1 | – | 35.5 µM [rising, single point]
O=C(Nc1cccc(Oc2c(F)c(F)c(F)c(F)c2F)c1)N1C[C@@H]2C[C@@H](C1)c1cccc(=O)n1C2 | – | 3.98 µM [rising, partial curve, poor fit]

Single values from the list:
In AC50 [1], `CCn1ncc(C2=NOC(C(=O)Nc3ccc(C)cc3)C2)c1C` (stereo not given) shows 12.6 µM [rising, partial curve]
In AC50 [2], `Cn1ccnc1SCC(=O)c1ccc([N+](=O)[O-])cc1` shows 8.91 µM [falling, partial curve, poor fit]

Next part

Structure (SMILES) | AC50 [1] | AC50 [2]
COC(=O)c1ccccc1NC(=O)n1cc(C)cn1 | 0.501 µM [falling, full curve, poor fit] | –
Cc1cc2c(cc1S(=O)(=O)Nc1cc(C(F)(F)F)cc(C(F)(F)F)c1)OCC(=O)N2 | – | 0.0398 µM [falling, full curve, poor fit]
Cc1cccc(NC(=S)NCCc2ccccc2)n1 | 20 µM [rising, single point] | –
O=C(NCCCOc1cccc(CN2CCCCC2)c1)c1ccc(Cl)c(Cl)c1 | – | 10 µM [rising, partial curve]
COc1ccc(C)cc1N(C(=O)COc1ccccc1)c1nc2ccccc2s1 | 8.91 µM [rising, partial curve] | –
Cc1ccc2nc(NNC(=O)c3ccc4c(c3)OCCO4)sc2c1 | 35.5 µM [rising, single point] | 35.5 µM [rising, single point]
CC(=O)O[C@H]1C(=O)[C@@]2(C)[C@H]([C@H](OC(=O)c3ccccc3)[C@]3(O)C[C@H](OC(=O)[C@H](O)[C@@H](NC(=O)c4ccccc4)c4ccccc4)C(C)=C1C3(C)C)[C@]1(OC(C)=O)CO[C@@H]1C[C@@H]2O | 0.224 µM [rising, full curve] | 35.5 µM [falling, single point]
COc1ccccc1N1CCN(C(c2cccs2)C(C)NC(=O)c2cccnc2)CC1 (stereo not given) | 3.98 µM [falling, partial curve, poor fit] | –
O=C(Nc1cccc(C(F)(F)F)c1)C1CCCN(c2ncccn2)C1 (stereo not given) | 17.8 µM [rising, single point] | 14.1 µM [rising, partial curve]
OCCN(CCO)c1ncnc2c1sc1nc(N3CCOCC3)c3c(c12)CCCC3 | 31.6 µM [rising, single point] | –
COc1ccc2nc(C)[nH]c(=O)c2c1 | 0.794 µM [falling, full curve, poor fit] | –
CC(=O)Nc1ccc(S(=O)(=O)N(C)CC(=O)OCC(=O)c2cc(C)n(-c3ccc4c(c3)OCO4)c2C)cc1 | – | 35.5 µM [falling, single point]
COc1cccc(OC)c1C(=O)Nc1cc(C)nn1-c1nc2ccccc2[nH]1 | 3.98 µM [rising, single point] | 12.6 µM [rising, single point]
O=C(OCn1ncc(Br)c(Br)c1=O)c1c(F)cccc1F | 35.5 µM [rising, single point] | –
COc1cc(OC)c(N(C)C(=O)Nc2cn(CC(C)C)c(=O)c3ccccc23)cc1Cl | 0.891 µM [falling, full curve, poor fit] | –
CN(C)S(=O)(=O)c1ccc(C(=O)NC(=O)CSc2ccccc2)cc1 | 0.126 µM [falling, full curve, poor fit] | –
CCCc1nn2c(=O)cc(COC(=O)CNC(=O)COc3ccc(C)cc3)nc2s1 | 0.01 µM [falling, full curve, poor fit] | –
O=S(=O)(NCC1CCCO1)c1ccc(S(=O)(=O)N2CCCC2)cc1 (stereo not given) | 0.112 µM [falling, full curve, poor fit] | –
CC(C)C(=O)NC(c1ccco1)c1c(O)ccc2ccccc12 (stereo not given) | 25.1 µM [rising, single point] | –
